From US20100331311A1 (priority 2005, published 2010)
Several values for one entry are separate records, joined by “and”; a condition that tells them apart may be missing. Equal entries are not always repeated.

Legend:
[1] = test system: glaucomatous and normal (contralateral) eyes; design: species or system Brown Norway rats; conditions: rat, in vivo
Method: IOP from glaucomatous and normal (contralateral) eyes was measured in awake animals using a calibrated tonometer (TonoPen XL, Medtronic Solan, Jacksonville, Fla.). Ten to fifteen consecutive readings per eye were taken and averaged to obtain an accurate daily IOP measurement. IOP was measured daily for two weeks after ocular hypertension surgery, and then every other day for the entire duration of the experiment. The mean IOP (mm Hg±S.E.M.) per eye was the average of all IOP readings since the onset of pressure elevation. The maximum IOP measured in each individual eye, glaucomatous or normal contralateral eye, was defined as the peak IOP and this value was used to estimate the mean peak IOP for each group. The delta positive integral IOP was calculated as the area under the IOP curve in the glaucomatous eye minus that of the fellow normal eye from ocular hypertension surgery to euthanasia. Integral IOP represents the total, cumulative IOP exposure throughout the entire experiment.
For this purpose, Applicant measured intraocular pressure every other day for entire duration of daily treatment with galantamine up to 35 days after ocular hypertension (OHT) surgery.

[2] = test system: retinal ganglion cells (RGCs); design: species or system Brown Norway rats; conditions: rat, in vivo

COc1cc2c(cc1OC)C(=O)C(CC1CCN(Cc3ccccc3)CC1)C2 (stereo not drawn) [Donepezil, donepezil]
effect on intraocular pressure (in words) [1]: significantly reduced the IOP in glaucomatous eyes | Integral IOP ([1]; 3.5 mg/kg): 246 mm Hg and 246 ± 7 mm Hg | Mean IOP Control ([1]; 3.5 mg/kg): 22.07 ± 0.6 mm Hg | Mean IOP Difference ([1]; 3.5 mg/kg): 9.7 mm Hg and 9.7 ± 0.8 mm Hg | Mean IOP Glaucoma ([1]; 3.5 mg/kg): 31.7 ± 1.5 mm Hg | neuroprotection of RGCs in experimental glaucoma, galantamine vs donepezil (in words) [2]: confer neuroprotection on retinal ganglion cells in glaucoma
